Experimental findings from PubChem BioAssay AID270 (DTP/NCI, 2004) are described below.

The list does not hold the whole screen: it is rich in T/C values a quarter to a half above the control, in often repeated tests (any T/C) and in doses without a T/C. Other doses and runs of a compound stand elsewhere. T/C: endpoint of the treated group in % of that of the vehicle group. Some entries give survivors of the animals treated and no T/C: the source files T/C as zero there, which appears to mark a toxic dose or a test without result, not a measured value. Some survivor counts are full or nearly so, which does not show that the dose was tolerated: survival well below the control is almost never listed, so the zero probably covers shortened survival too. Survivors were counted at the toxicity check, usually on the fifth day, unless a day is given; later deaths do not show. Schedules are NCI's codes, read here as Q, the interval in days (D) or hours (H), X, the number of doses. Some doses were run more than once; the values are given in rising order. For survival time, this PubChem deposit counts one and a half times the control or more as active, and values a quarter to a half above the control carry no call in these data; other NCI protocols may use other cut-offs.

The subject of the assay is BDF1 mice, s.c. Lewis lung carcinoma, T/C %. Description: NCI In Vivo Anticancer Drug Screen. Data for tumor model Lewis Lung Carcinoma (subcutaneous) in B6D2F1 (BDF1) mice. The essentials:
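Tumor-bearing mice were treated with test compound, and either survival or tumor size was recorded. Values are the treated-group measurement divided by that of the vehicle-treated control group.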

In the case of `NC(C/[N+]([O-])=N/O)C(=O)O` (stereo not drawn), the survivor count (T/C endpoint: median survival time, dose: 100.0 mg/kg/injection, schedule: Q01DX010 (ip), vehicle: alkali diluted with saline, higher T/C = longer survival) is 6 of 10 on day 57. The T/C (T/C endpoint: median survival time, dose: 500.0 mg/kg/injection, schedule: Q01DX001 (ip), vehicle: saline, higher T/C = longer survival) is 128 % of control.

As for `Cc1cc2c(c3oc(C4(C)OC4C4OC4C)cc(=O)c13)C(=O)c1c(O)c(C3CC(C)(N(C)C)C(O)C(C)O3)cc(C3CC(N(C)C)C(O)C(C)O3)c1C2=O` (stereo not drawn), the survivor count (T/C endpoint: median survival time, dose: 2.0 micrograms/kg/injection, schedule: Q01DX009 (ip), vehicle: DMSO, higher T/C = longer survival) is 10 of 10 on day 10; the survivor count (T/C endpoint: median survival time, dose: 32.0 micrograms/kg/injection, schedule: Q01DX009 (ip), vehicle: DMSO, higher T/C = longer survival) was 6 of 10 on day 10; the survivor count (T/C endpoint: median survival time, dose: 64.0 micrograms/kg/injection, schedule: Q01DX009 (ip), vehicle: DMSO, higher T/C = longer survival) is 7 of 10 on day 10.

For the molecule `COC(=O)[C@@H]1c2cc3c(c(O)c2[C@@H](OC2OC(C)C(OC)C(C)(OC)C2OC)C[C@]1(C)O)C(=O)c1c(O)cc2c(c1C3=O)O[C@H]1O[C@]2(C)[C@H](O)[C@@H](N(C)C)[C@@H]1O` (stereo partly drawn), the survivor count is given as 0 of 6 (T/C endpoint: mean tumor weight, dose: 1.5 mg/kg/injection, schedule: Q01DX008 (ip), vehicle: saline, higher T/C = larger tumour) and 0 of 6 (T/C endpoint: mean tumor weight, dose: 2.0 mg/kg/injection, schedule: Q01DX008 (ip), vehicle: saline, higher T/C = larger tumour).

In the case of `CCC(=O)NC1=C(N2CC2)C(=O)C(NC(=O)CC)=C(N2CC2)C1=O`, the survivor count (T/C endpoint: mean tumor weight, dose: 9.0 mg/kg/injection, schedule: Q01DX011 (ip), vehicle: other, higher T/C = larger tumour) is listed as 0 of 6.

On to `CCOC(=O)C(C)(C)Br`, for which the survivor count (T/C endpoint: mean tumor weight, dose: 1000.0 mg/kg/injection, schedule: Q01DX011 (ip), vehicle: other, higher T/C = larger tumour) is reported as 0 of 6.

On to `C=C1C(=O)O[C@@H]2[C@H](O)[C@@H](C)[C@@H]3C=CC(=O)[C@@]3(C)[C@H](OC(=O)C=C(C)C)[C@H]12`, for which the survivor count is 10 of 10 (T/C endpoint: median survival time, dose: 1.25 mg/kg/injection, schedule: Q01DX009 (ip), vehicle: saline with Tween-80, higher T/C = longer survival); 10 of 10 (T/C endpoint: median survival time, dose: 2.5 mg/kg/injection, schedule: Q01DX009 (ip), vehicle: saline with Tween-80, higher T/C = longer survival); 10 of 10 (T/C endpoint: median survival time, dose: 5.0 mg/kg/injection, schedule: Q01DX009 (ip), vehicle: saline with Tween-80, higher T/C = longer survival); 9 of 10 (T/C endpoint: median survival time, dose: 10.0 mg/kg/injection, schedule: Q01DX009 (ip), vehicle: saline with Tween-80, higher T/C = longer survival); 6 of 10 and 9 of 10 (T/C endpoint: median survival time, dose: 20.0 mg/kg/injection, schedule: Q01DX009 (ip), vehicle: saline with Tween-80, higher T/C = longer survival). For the same molecule, the T/C by setting is: (T/C endpoint: median survival time, dose: 2.5 mg/kg/injection, schedule: Q01DX009 (ip), vehicle: Klucel (hydroxypropylcellulose) (HPC), higher T/C = longer survival) 143 % of control; (T/C endpoint: median survival time, dose: 5.0 mg/kg/injection, schedule: Q01DX009 (ip), vehicle: Klucel (hydroxypropylcellulose) (HPC), higher T/C = longer survival) 125 % of control.

For the molecule `CCOC(=O)C1C(=O)C(CN(CCCl)CCCl)C(=O)C(C(=O)OCC)C1c1ccc(O)cc1` (stereo not drawn), the survivor count (T/C endpoint: median survival time, dose: 50.0 mg/kg/injection, schedule: Q01DX009 (ip), vehicle: Klucel (hydroxypropylcellulose) (HPC), higher T/C = longer survival) was 9 of 10.

Consider `CN1CCCC1c1cccnc1` (stereo not drawn), for which the survivor count (T/C endpoint: mean tumor weight, dose: 8.0 mg/kg/injection, schedule: Q01DX011 (ip), vehicle: carboxymethylcellulose (CMC), higher T/C = larger tumour) is on record as 3 of 6.
